In PubChem BioAssay AID540256 (National Center for Advancing Translational Sciences (NCATS), 2011):
About 3,700 (1.2%) of roughly 300,000 compounds were called active. The shares of active, inactive and inconclusive entries below differ from those in the screen. The call rests on the fitted dose curve; tested in HEK293 cells. A potency beside an inconclusive call is a rough fit, not a confirmed value.

Assay: qHTS for Inhibitors of binding or entry into cells for Lassa Virus; further: nearly all actives have a fitted effect of over 50% in size
Conditions: Lassa virus pseudotype entry inhibition, cell reporter; series mostly up to 37.9 µM
Potency means the concentration at half of the fitted maximal effect.

Row | Structure (SMILES) | Potency
1 | O=S(=O)(NCc1ccccc1)c1ccc(Cl)cc1 | inactive
2 | CCN=C1S/C(=C\c2cn(C(C)=O)nc2-c2ccccc2)C(=O)N1CC | inconclusive: 29.1 µM [inhibitor, single point]
3 | Cc1cc(C)cc(OCc2nnc(SCC(=O)N3CCCCC3)o2)c1 | inactive
4 | COc1ccccc1C(=O)NNS(=O)(=O)c1ccc(F)cc1 | inactive
5 | CCOc1cc(NC(=O)c2ccccc2C)c(OCC)cc1NC(=O)C1=Cc2ccccc2OC1 | inconclusive: 29.1 µM [inhibitor, single point]
6 | CC(NCc1ccc(-c2ccccc2)cc1)C(O)c1ccccc1 (centres undefined) | active: 4.61 µM
7 | O=C(Cn1c(=O)c2ccccc2n(CC(=O)Nc2ccc(Cl)cc2)c1=O)NCCc1ccccc1 | inconclusive: 8.91 µM [inhibitor, single point]
8 | CCOC(=O)c1c(C)[nH]c(CCC(=O)NCCCN2CCN(c3cc(Cl)ccc3C)CC2)c1C | inconclusive: 35.5 µM [inhibitor, single point]
9 | CC(=O)Nc1ccc(NC(=O)C(C)OC(=O)/C=C/c2cn(-c3ccccc3)nc2-c2cccnc2)cc1 (centres undefined) | inconclusive: 35.5 µM [inhibitor, single point]
10 | CC12CC3(C)CC(C)(C1)CC(C(=O)NC(=S)N1CCOCC1)(C2)C3 | inconclusive: 9.2 µM [inhibitor, partial curve, poor fit]
11 | CCCCN(C)CCNC(=O)C1CCCN(S(=O)(=O)c2ccc3c(c2)oc(=O)n3C)C1 (centres undefined) | inactive
12 | CCc1ccc(-n2nc3ccc(NC(=O)c4ccc5c(c4)OCO5)cc3n2)cc1 | inactive
13 | CCCCn1c(N)c(-c2nc3ccccc3s2)c2c([N+](=O)[O-])nn(CC)c(=O)c21 | inconclusive: 1.83 µM [inhibitor, partial curve, poor fit]
14 | C=C(C)[C@@H]1CC=C(CN2CCN(Cc3ccccc3)CC2)CC1 | inconclusive: 3.55 µM [activator, single point]
15 | COc1ccc(NC(=O)CCCn2c(=O)c3cccn3c3ccccc32)c(OC)c1 | inconclusive: 3.16 µM [inhibitor, full curve, poor fit]
16 | COC(=O)C(C)Sc1nc2c(c(=O)n(C)c(=O)n2C)n1CCC(C)C (centres undefined) | inconclusive: 0.82 µM [inhibitor, partial curve, poor fit]
17 | C=CCSc1nccc(=O)[nH]1 | inconclusive: 22.4 µM [inhibitor, single point]
18 | Cc1ccc(-n2c(C)cc(C(=O)COc3c(CO)cc(F)cc3CO)c2C)cc1C | inconclusive: 14.6 µM [inhibitor, partial curve, poor fit]
19 | Cc1oc2cc3c(C(=O)N4CCCCC4)c(C)oc3cc2c1C(=O)N1CCCCC1 | inconclusive: 0.013 µM [activator, full curve, poor fit]
20 | Cc1cc(S(=O)(=O)NCC(C)C)ccc1OCC(=O)N1CCN(Cc2ccccc2)CC1 | inconclusive: 12.6 µM [inhibitor, partial curve]
21 | Cc1ccc(C2c3c(-c4cc(C)ccc4O)n[nH]c3C(=O)N2Cc2ccco2)cc1 (centres undefined) | inconclusive: 3.16 µM [inhibitor, partial curve, poor fit]
22 | CCOC(=O)Cc1csc(N/C(=N/S(=O)(=O)c2cc(Br)ccc2OCC)c2ccccc2)n1 | inactive

Row | Structure (SMILES) | Potency
23 | O=C(CNC(=O)c1sc2ccccc2c1Cl)NCc1ccccc1 | inconclusive: 1.12 µM [inhibitor, full curve]
24 | Cc1ccc(NC(=O)CSc2n[nH]c(C)c2[N+](=O)[O-])cc1C | inactive
25 | O=C(NN=C1CCN(Cc2ccccc2)CC1)c1ccccc1 | inactive
26 | CCOc1ccc(S(=O)(=O)/N=C(\N)c2ccccc2)cc1 | active: 12.6 µM
27 | OCc1ccccc1NC(=S)Nc1cccnc1 | inactive
28 | CCN(CC1COc2ccccc2O1)C(=O)c1ccc(Cl)c(S(=O)(=O)N2CC(C)OC(C)C2)c1 (centres undefined) | inconclusive: 7.94 µM [inhibitor, partial curve, poor fit]
29 | COc1cccc(Sc2ccccc2/C=N/NC(N)=O)c1 | inconclusive: 1.12 µM [inhibitor, full curve, poor fit]
30 | Cc1ccc(NNC(=O)c2cccs2)cc1Cl | inconclusive: 7.94 µM [inhibitor, partial curve]
31 | O=C(NCC(c1ccco1)N1CCN(c2ccccc2)CC1)c1cccs1 (centres undefined) | inactive
32 | O=C(NCCCn1ccnc1)c1ccc(N2CCCCCC2)c([N+](=O)[O-])c1 | inconclusive: 25.1 µM [inhibitor, single point]
33 | COc1ccc(C(=O)O/N=C(\N)c2ccccc2)cc1OC | inconclusive: 35.5 µM [inhibitor, single point]
34 | NS(=O)(=O)c1ccc(NC(=O)c2ccc3c(c2)OCO3)cc1 | inconclusive: 1.26 µM [inhibitor, single point]
35 | CCCCNC(=O)NC1(C(F)(F)F)Oc2ccccc2O1 | inconclusive: 14.1 µM [inhibitor, partial curve]
36 | CC1CCCN(C(=O)/C(=C/c2ccco2)NC(=O)c2ccccc2)C1 (centres undefined) | inactive
37 | CCN1/C(=C/c2cc[n+](C)cc2)C=Cc2cc(C)ccc21 | inconclusive: 5.62 µM [inhibitor, full curve]
38 | COCCN1C(=O)c2ccccc2C(C(=O)Nc2ccc3c(c2)OCCO3)C1c1ccc(F)cc1 (centres undefined) | inactive
39 | O=C(Nc1ccc(Cl)c(Cl)c1)C1C2C=CC3(O2)C1C(=O)N(CCN1CCCCC1)C3C(=O)NC1CCCCC1 (centres undefined) | inactive
40 | COc1ccc(NC(=S)NCCN2CCOCC2)c(OC)c1 | inconclusive: 3.16 µM [activator, partial curve, poor fit]
41 | CCc1ccc(Nc2nnc(SCC(=O)N(C)CC(=O)Nc3ccccc3CC)s2)cc1 | inconclusive: 32.6 µM [inhibitor, single point]
42 | Cc1ccc(NC(=O)COC(=O)Cc2cccs2)cc1S(=O)(=O)N1CCOCC1 | inactive
43 | Cc1ccc(CNc2oc(-c3ccco3)nc2C#N)cc1 | inactive
44 | O=C(Nc1nc2ccc(Cl)cc2s1)[C@@H]1CCCN1C(=O)c1cccs1 | inconclusive: 6.31 µM [inhibitor, single point]
